Among the data in paper PMC3498211 are binding values, retold here.

These are yes or no findings as the source states them, for the method shown. In cells and extracts the contact can be indirect. Some entries that bind do so weakly or less than the wild type. Tags and fused reporters may be left off the sequences shown.

The target of experiment [1] is T1, SREBP cleavage-activating protein (SCAP) (UniProt P97260).
T1 sequence: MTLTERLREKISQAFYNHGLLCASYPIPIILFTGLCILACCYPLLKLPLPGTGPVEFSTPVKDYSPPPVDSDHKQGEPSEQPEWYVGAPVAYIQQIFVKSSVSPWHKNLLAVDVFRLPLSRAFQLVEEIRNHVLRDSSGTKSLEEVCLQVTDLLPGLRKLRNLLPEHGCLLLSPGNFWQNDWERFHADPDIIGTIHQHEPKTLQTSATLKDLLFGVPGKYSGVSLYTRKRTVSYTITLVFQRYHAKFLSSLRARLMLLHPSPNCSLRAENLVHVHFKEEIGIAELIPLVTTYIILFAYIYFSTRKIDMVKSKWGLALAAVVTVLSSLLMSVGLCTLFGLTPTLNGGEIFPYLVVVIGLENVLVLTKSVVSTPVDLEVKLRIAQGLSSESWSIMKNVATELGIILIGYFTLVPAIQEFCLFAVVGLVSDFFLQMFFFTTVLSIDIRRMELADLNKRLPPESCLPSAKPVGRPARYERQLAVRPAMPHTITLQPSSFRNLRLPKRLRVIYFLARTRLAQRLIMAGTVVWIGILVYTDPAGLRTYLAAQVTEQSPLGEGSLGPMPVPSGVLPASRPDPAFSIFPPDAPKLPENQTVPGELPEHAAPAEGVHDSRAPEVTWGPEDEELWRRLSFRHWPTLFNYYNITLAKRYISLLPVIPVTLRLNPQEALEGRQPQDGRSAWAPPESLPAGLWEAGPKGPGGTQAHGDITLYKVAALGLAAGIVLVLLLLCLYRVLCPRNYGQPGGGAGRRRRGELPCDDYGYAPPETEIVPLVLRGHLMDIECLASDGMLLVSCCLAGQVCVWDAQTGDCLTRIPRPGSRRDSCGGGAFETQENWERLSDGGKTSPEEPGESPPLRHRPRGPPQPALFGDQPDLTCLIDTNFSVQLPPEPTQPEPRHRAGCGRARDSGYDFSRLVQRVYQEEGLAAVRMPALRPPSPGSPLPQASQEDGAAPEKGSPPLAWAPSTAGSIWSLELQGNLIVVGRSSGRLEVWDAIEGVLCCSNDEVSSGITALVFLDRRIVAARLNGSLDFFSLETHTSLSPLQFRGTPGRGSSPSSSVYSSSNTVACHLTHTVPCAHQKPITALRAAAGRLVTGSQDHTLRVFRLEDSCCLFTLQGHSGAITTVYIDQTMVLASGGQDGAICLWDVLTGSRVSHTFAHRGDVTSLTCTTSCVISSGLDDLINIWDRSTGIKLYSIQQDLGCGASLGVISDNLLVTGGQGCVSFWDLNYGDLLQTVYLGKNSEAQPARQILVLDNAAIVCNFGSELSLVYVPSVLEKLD
The experiment is described as follows: co-IP; GST-ACBD3, Myc-hSREBP1 (full length) and SCAP co-expressed in HEK293T, 48 or 72 hr; lysis in Buffer B (50 mM HEPES-KOH pH 7.4, 100 mM NaCl, 1.5 mM MgCl2, 0.1% NP-40); anti-SCAP antibody overnight at 4 C, TrueBlot anti-rabbit IP beads; immunoblot; with or without GST-ACBD3. On the technique in general: A western blot detects proteins with antibodies after separation by electrophoresis.

Experiment [2] addresses T2, GST-tagged rat full-length ACBD3 (acyl-CoA binding domain containing 3) (rat) (UniProt Q7TNY6).
T2 sequence: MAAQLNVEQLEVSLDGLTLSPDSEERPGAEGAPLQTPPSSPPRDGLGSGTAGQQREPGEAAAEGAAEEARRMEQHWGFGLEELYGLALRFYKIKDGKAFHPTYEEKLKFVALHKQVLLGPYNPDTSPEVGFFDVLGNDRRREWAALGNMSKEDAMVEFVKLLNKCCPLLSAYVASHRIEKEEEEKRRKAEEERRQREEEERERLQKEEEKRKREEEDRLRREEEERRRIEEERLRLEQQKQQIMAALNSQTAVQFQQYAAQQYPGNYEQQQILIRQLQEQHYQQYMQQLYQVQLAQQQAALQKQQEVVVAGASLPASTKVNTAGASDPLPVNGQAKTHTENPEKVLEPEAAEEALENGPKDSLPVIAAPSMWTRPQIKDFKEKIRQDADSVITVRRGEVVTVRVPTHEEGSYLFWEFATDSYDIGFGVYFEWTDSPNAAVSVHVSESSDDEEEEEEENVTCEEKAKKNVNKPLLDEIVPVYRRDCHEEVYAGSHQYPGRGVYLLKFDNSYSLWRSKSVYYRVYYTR
The experiment is described as follows: pull-down; GST-ACBD3 expressed in HEK293T alone or with Myc-hSREBP1A (full length or 1-490), 48 hr; lysis in Buffer A (100 mM Tris pH 7.4, 150 mM NaCl, 1% Triton X-100, 15% glycerol); 400 ug lysate protein on Glutathione 4B sepharose beads overnight at 4 C; immunoblot (the paper calls it immunoprecipitation).

B1: Myc-tagged human SREBP1A full length (1-1147) (protein, UniProt P36956-1 1-1147)
chain: MDEPPFSEAALEQALGEPCDLDAALLTDIEDMLQLINNQDSDFPGLFDPPYAGSGAGGTDPASPDTSSPGSLSPPPATLSSSLEAFLSGPQAAPSPLSPPQPAPTPLKMYPSMPAFSPGPGIKEESVPLSILQTPTPQPLPGALLPQSFPAPAPPQFSSTPVLGYPSPPGGFSTGSPPGNTQQPLPGLPLASPPGVPPVSLHTQVQSVVPQQLLTVTAAPTAAPVTTTVTSQIQQVPVLLQPHFIKADSLLLTAMKTDGATVKAAGLSPLVSGTTVQTGPLPTLVSGGTILATVPLVVDAEKLPINRLAAGSKAPASAQSRGEKRTAHNAIEKRYRSSINDKIIELKDLVVGTEAKLNKSAVLRKAIDYIRFLQHSNQKLKQENLSLRTAVHKSKSLKDLVSACGSGGNTDVLMEGVKTEVEDTLTPPPSDAGSPFQSSPLSLGSRGSGSGGSGSDSEPDSPVFEDSKAKPEQRPSLHSRGMLDRSRLALCTLVFLCLSCNPLASLLGARGLPSPSDTTSVYHSPGRNVLGTESRDGPGWAQWLLPPVVWLLNGLLVLVSLVLLFVYGEPVTRPHSGPAVYFWRHRKQADLDLARGDFAQAAQQLWLALRALGRPLPTSHLDLACSLLWNLIRHLLQRLWVGRWLAGRAGGLQQDCALRVDASASARDAALVYHKLHQLHTMGKHTGGHLTATNLALSALNLAECAGDAVSVATLAEIYVAAALRVKTSLPRALHFLTRFFLSSARQACLAQSGSVPPAMQWLCHPVGHRFFVDGDWSVLSTPWESLYSLAGNPVDPLAQVTQLFREHLLERALNCVTQPNPSPGSADGDKEFSDALGYLQLLNSCSDAAGAPAYSFSISSSMATTTGVDPVAKWWASLTAVVIHWLRRDEEAAERLCPLVEHLPRVLQESERPLPRAALHSFKAARALLGCAKAESGPASLTICEKASGYLQDSLATTPASSSIDKAVQLFLCDLLLVVRTSLWRQQQPPAPAPAAQGTSSRPQASALELRGFQRDLSSLRRLAQSFRPAMRRVFLHEATARLMAGASPTRTHQLLDRSLRRRAGPGGKGGAVAELEPRPTRREHAEALLLASCYLPPGFLSAPGQRVGMLAEAARTLEKLGDRRLLHDCQQMLMRLGGGTTVTSS
Regarding B1, the binding result in experiment [1] and in experiment [2] was “binds” in each case.

B2: Insulin induced gene 1 protein (Insig1) (protein, UniProt O15503 1-277)
chain: MPRLHDHFWSCSCAHSARRRGPPRASAAGLAAKVGEMINVSVSGPSLLAAHGAPDADPAPRGRSAAMSGPEPGSPYPNTWHHRLLQRSLVLFSVGVVLALVLNLLQIQRNVTLFPEEVIATIFSSAWWVPPCCGTAAAVVGLLYPCIDSHLGEPHKFKREWASVMRCIAVFVGINHASAKLDFANNVQLSLTLAALSLGLWWTFDRSRSGLGLGITIAFLATLITQFLVYNGVYQYTSPDFLYIRSWLPCIFFSGGVTVGNIGRQLAMGVPEKPHSD
With B2, in experiment [1], the binding entry was “binds”.

B3: Myc-tagged human SREBP1A nuclear mature form (1-490) (domain or fragment, UniProt P36956-1 1-490)
chain: MDEPPFSEAALEQALGEPCDLDAALLTDIEDMLQLINNQDSDFPGLFDPPYAGSGAGGTDPASPDTSSPGSLSPPPATLSSSLEAFLSGPQAAPSPLSPPQPAPTPLKMYPSMPAFSPGPGIKEESVPLSILQTPTPQPLPGALLPQSFPAPAPPQFSSTPVLGYPSPPGGFSTGSPPGNTQQPLPGLPLASPPGVPPVSLHTQVQSVVPQQLLTVTAAPTAAPVTTTVTSQIQQVPVLLQPHFIKADSLLLTAMKTDGATVKAAGLSPLVSGTTVQTGPLPTLVSGGTILATVPLVVDAEKLPINRLAAGSKAPASAQSRGEKRTAHNAIEKRYRSSINDKIIELKDLVVGTEAKLNKSAVLRKAIDYIRFLQHSNQKLKQENLSLRTAVHKSKSLKDLVSACGSGGNTDVLMEGVKTEVEDTLTPPPSDAGSPFQSSPLSLGSRGSGSGGSGSDSEPDSPVFEDSKAKPEQRPSLHSRGMLDRSRLAL
As for B3, the binding entry in experiment [2] is reported as “no binding”.
